In paper PMC7235009 one finds binding data, which are given here for one substance.

Amino acid sequences for entries named in this document (tags omitted).
UniProt P01106: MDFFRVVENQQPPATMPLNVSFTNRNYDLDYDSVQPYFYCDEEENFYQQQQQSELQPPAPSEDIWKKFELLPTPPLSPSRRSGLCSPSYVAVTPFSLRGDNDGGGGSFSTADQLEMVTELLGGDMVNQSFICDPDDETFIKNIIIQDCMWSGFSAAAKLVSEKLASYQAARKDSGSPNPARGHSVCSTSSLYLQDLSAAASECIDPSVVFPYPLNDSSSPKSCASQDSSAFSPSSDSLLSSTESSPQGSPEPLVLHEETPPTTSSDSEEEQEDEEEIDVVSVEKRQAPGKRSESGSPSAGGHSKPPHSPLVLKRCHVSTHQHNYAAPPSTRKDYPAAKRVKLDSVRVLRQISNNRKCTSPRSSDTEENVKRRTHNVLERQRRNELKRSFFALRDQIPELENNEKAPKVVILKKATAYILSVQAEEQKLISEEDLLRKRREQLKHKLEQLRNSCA
UniProt Q969H0: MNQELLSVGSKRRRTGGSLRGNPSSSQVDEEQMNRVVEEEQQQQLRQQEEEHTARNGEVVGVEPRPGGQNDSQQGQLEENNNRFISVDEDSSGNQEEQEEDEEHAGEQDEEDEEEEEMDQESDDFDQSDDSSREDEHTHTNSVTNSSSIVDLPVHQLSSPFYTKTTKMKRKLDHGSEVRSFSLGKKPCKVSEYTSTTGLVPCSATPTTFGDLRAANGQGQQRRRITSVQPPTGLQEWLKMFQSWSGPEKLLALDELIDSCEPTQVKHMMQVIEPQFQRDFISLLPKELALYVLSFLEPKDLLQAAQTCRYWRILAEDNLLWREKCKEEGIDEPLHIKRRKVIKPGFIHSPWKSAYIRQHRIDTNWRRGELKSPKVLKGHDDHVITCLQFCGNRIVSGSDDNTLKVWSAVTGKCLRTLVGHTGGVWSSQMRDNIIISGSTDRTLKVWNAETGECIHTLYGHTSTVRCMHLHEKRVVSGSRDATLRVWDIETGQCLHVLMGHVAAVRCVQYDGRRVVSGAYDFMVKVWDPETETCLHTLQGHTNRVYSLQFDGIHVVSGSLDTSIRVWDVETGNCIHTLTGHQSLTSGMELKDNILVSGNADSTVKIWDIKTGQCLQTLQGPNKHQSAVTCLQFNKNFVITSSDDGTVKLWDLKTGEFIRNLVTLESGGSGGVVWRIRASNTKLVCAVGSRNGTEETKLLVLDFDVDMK

This assay deals with c-Myc (human (endogenous in CAL27)) (UniProt P01106). As to the kind of experiment: co-IP; CAL27 cells treated with Tan IIA (Fig. 4f); sgCtrl and sgAkt stable CAL27 cells treated with Tan IIA for 24 h (Fig. 5e); WCE subjected to co-IP; which protein was precipitated is not told.

These are yes or no findings as the source states them, for the method shown. In cells and extracts the contact can be indirect. Some entries that bind do so weakly or less than the wild type.

Regarding FBW7 (from UniProt Q969H0 1-707), the binding result is reported as “binds”.
